According to US10260060B2, “Genetically modified phenylpyruvate decarboxylase, processes to prepare, and uses thereof” (Dow Global Technologies LLC, priority 2014, dated 2019):
Substitutions are numbered along the chain they refer to. At least one structure is not confirmed: it was looked up by name or label, or the drawing left a doubt.

Legend:
[1] = biological target: T1, Azospirillum brasilense phenylpyruvate decarboxylase (AbPPDC) variant F532V, SEQ ID 28 (Azospirillum brasilense, UniProt P51852, F532V); test: HTP AbPPDC coupled enzyme assay (ADH6/NADPH), 2-ketoacid decarboxylation kinetics, F532V; format: biochemical; details: for h (Hill coefficient) / kcat/K0.5: pH 6.8, 30° C, Hill equation, mean ± standard error
T1 construct: made in house; host or cells: E. coli BL21(DE3)
T1 sequence (P51852 1-545 F532V): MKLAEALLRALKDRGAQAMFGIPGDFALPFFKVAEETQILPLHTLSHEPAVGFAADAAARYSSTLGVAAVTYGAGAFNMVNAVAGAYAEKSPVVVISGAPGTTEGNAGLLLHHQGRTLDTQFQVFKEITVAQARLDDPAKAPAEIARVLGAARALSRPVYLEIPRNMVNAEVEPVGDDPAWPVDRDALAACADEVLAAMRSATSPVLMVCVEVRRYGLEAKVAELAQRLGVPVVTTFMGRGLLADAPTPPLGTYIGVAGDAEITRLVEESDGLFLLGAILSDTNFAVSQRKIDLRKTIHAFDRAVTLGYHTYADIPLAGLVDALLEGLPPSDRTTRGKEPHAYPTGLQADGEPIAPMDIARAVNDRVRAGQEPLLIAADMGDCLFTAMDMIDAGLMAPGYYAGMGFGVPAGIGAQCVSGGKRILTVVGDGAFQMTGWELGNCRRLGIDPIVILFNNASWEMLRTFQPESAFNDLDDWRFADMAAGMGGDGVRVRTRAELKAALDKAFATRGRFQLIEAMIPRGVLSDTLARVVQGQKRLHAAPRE
Experimental: (§1) The evaluation of the AbPPDC variants is performed in two steps using the high-throughput enzyme assay described hereinbelow. Initially, all the variants are tested for activity against a single high concentration (2 mM) of 2-KH and 2-KN (as shown in Table 1). Following the initial evaluation, detailed kinetic analysis is performed on a select number of variants to determine the maximal rate (kcat), substrate concentration yielding half maximal rate (K0.5, equivalent of KM for enzymes following Michaelis-Menten kinetics), and the catalytic efficiency of the enzyme (kcat/K0.5) against 2-KO and 2-KN (as shown in Table 2). AbPPDC variants, having higher specificity (higher kcat/K0.5) for 2-KN, will be efficient in producing octanal and chemicals derived from it inside the cells.
To evaluate the substrate specificity of the wild type AbPPDC and its variants listed in Table 1, genes of all the proteins are expressed in E. coli cells separately and the protein products are isolated from the cells. The gene sequence of the Azospirillum brasilense phenylpyruvate decarboxylase (GenBank: Accession no. L26240) is downloaded from the NCBI database. Codons of 13 additional amino acids that include six (6) histidines (his) are added upstream of the Met-1 codon of the AbPPDC gene sequence. Such a modification allows expression of a Histidine-tagged AbPPDC having 13 additional amino acids on the N-terminus. The additional amino acids are attached as an aid for purifying the protein in a single step using Ni-NTA chromatography. The entire AbPPDC sequence with 13 additional amino acids (SEQ ID 2) is chemically synthesized and then cloned into the pRSFDuet-1 vector (EMD Biosciences) downstream of the T7 polymerase promoter by Synthetic Genomics, Inc. (San Diego, Calif.). The final vector is sequenced by Synthetic Genomics, Inc. before shipping.
Genes of the AbPPDC variants listed in Table 1 are either chemically synthesized or generated using New England Biolab's Q5 Site-directed Mutagenesis Kit (cat. no. E0554S) and cloned into the pRSFDuet-1 vector. The pRSFDuet-1 vector containing AbPPDC or the AbPPDC variant gene is transformed into E. coli, AbPPDC or its variant, then expressed and eventually purified, as described below.
(§2) A high-throughput AbPPDC coupled enzyme assay is developed for evaluating the substrate specificity of AbPPDC variants. The assay involves reducing the aldehyde produced from AbPPDC mediated 2-ketoacid decarboxylation, using an alcohol dehydrogenase (ADH6, GenBank: Accession No. NP 014051.3). The initial velocities of the AbPPDC catalyzed reactions are determined from the rates of oxidation of reduced nicotinamide adenine dinucleotide phosphate (NADPH) occurring during the ADH6 catalyzed reduction of aldehyde.
The HTP screening assay involves incubating 2 mM 2-KH or 2 mM 2-KN with 0.5 mM thiamine diphosphate, 0.35 mM NADPH, 4.7 micrograms (μg) of yeast ADH6 (GenBank: Accession No. NP 014051.3) and 0.3 milligrams per milliliter (mg/mL) bovine serum albumin (BSA) in AbPPDC assay buffer (50 mM 3-(N-morpholino)propanesulfonic acid, pH 6.8, containing 2.5 mM magnesium chloride (MgCl2)) at 30° C. The reaction is started by addition at 30° C. of working enzyme stock containing from 0.5 μg to 3.5 μg of AbPPDC variant diluted in AbPPDC assay buffer containing 1 mg/mL BSA. The plate containing the 200 μL of reaction mixture is centrifuged at 2500×g for 15 sec and the absorbance change of the reaction mixture followed spectrophotometrically at 340 nm on a BioTek™ plate reader, pre-equilibrated at 30° C. Initial velocity of the enzyme reaction is calculated using the rate of NADPH consumption at 340 nm and the extinction coefficient of NADPH (6.22 mM^−1 cm^−1). The activity of all the variants is normalized with the amount of enzyme present in the reaction mixture and expressed as nanomoles per minute per milligram (nmol·min^−1·mg^−1). […]

[2] = biological target: T2, Azospirillum brasilense phenylpyruvate decarboxylase (AbPPDC) variant Q536G, SEQ ID 32 (Azospirillum brasilense, UniProt P51852, Q536G); test: HTP AbPPDC coupled enzyme assay (ADH6/NADPH), 2-ketoacid decarboxylation kinetics, Q536G; format: biochemical; details: for h (Hill coefficient): pH 6.8, 30° C, Hill equation, mean ± standard error
T2 construct: made in house; host or cells: E. coli BL21(DE3)
T2 sequence (P51852 1-545 Q536G): T1 sequence (P51852 1-545 F532V) with V532F, Q536G
Experimental: as §1
To evaluate the substrate specificity of the wild type AbPPDC and its variants listed in Table 1, genes of all the proteins are expressed in E. coli cells separately and the protein products are isolated from the cells. […]
as §2, with “The assay involves reducing the aldehyde produced from AbPPDC mediated 2-ketoacid decarboxylation, using an alcohol dehydrogenase (ADH6, GenBank: Accession No. NP 014051.3).” left out
The HTP screening assay involves incubating 2 mM 2-KH or 2 mM 2-KN with 0.5 mM thiamine diphosphate, 0.35 mM NADPH, 4.7 micrograms (μg) of yeast ADH6 (GenBank: Accession No. NP 014051.3) and 0.3 milligrams per milliliter (mg/mL) bovine serum albumin (BSA) in AbPPDC assay buffer (50 mM 3-(N-morpholino)propanesulfonic acid, pH 6.8, containing 2.5 mM magnesium chloride (MgCl2)) at 30° C. […] The plate containing the 200 μL of reaction mixture is centrifuged at 2500×g for 15 sec and the absorbance change of the reaction mixture followed spectrophotometrically at 340 nm on a BioTek™ plate reader, pre-equilibrated at 30° C. […]

In the case of `CCCCCCCC(=O)C(=O)O` [2-KN, 2-ketononanoate], the “Spec (specificity: ratio of kcat/K0.5 for 2-KN to that for 2-KO)” value ([1]; 2-KN over 2-KO) is reported as 5.6, the “h (Hill coefficient)” value [1] is reported as 1.8 ± 0.4 and the kcat/K0.5 [1] is reported as 27 mM⁻¹ min⁻¹. The “catalytic efficiency of decarboxylation in comparison with that of the wild type AbPPDC” value ([1]; relative to wild type AbPPDC) was 180%, the “fold more specific than AbPPDC in preferring 2-KN over 2-KO” value ([1]; relative to wild type AbPPDC) was 3 fold and the “Spec (specificity: ratio of kcat/K0.5 for 2-KN to that for 2-KO)” value ([2]; 2-KN over 2-KO) was 4.8. The “h (Hill coefficient)” value [2] was 2.7 ± 0.2.
For `CCCCCCC(=O)C(=O)O` [2-KO, 2-ketooctanoate], the “h (Hill coefficient)” value [1] was 3.4 ± 0.3, the kcat/K0.5 [1] was 4.8 mM⁻¹ min⁻¹ and the “catalytic efficiency of decarboxylation in comparison with that of the wild type AbPPDC” value ([1]; relative to wild type AbPPDC) was 45%. The “h (Hill coefficient)” value [2] was 2.2 ± 0.2.
